Results: paper PMC4379049
Results are given in words; binding and its absence hold for the method and conditions named. For some of these results: In cells and extracts the contact can be indirect. Some binding calls cover weakened binding; strength is not graded here. For some of these results: Sequences can lack the tags named with a protein. Blank lines part the entries; values can stand above or below the molecule they belong to.

Tests used:
[1] = target: T1, BP full length fused to a YFP fragment (BiFC) (Arabidopsis thaliana) (UniProt P46639); experiment: split reporter; BiFC with YN (pUC-pSPYNE) and YC (pUC-pSPYCE) fusions, transient expression in tobacco BY-2 cells by PEG; confocal imaging
T1 sequence: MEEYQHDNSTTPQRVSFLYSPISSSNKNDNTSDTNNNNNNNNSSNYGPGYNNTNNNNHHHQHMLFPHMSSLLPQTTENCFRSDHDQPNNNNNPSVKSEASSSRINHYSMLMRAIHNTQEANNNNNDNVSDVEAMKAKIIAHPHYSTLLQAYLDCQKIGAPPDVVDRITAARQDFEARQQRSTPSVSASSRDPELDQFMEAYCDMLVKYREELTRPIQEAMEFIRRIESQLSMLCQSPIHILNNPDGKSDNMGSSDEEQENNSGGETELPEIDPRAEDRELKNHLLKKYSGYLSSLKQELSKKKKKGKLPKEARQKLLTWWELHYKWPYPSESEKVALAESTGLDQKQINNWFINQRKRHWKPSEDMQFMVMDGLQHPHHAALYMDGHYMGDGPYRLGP

[2] = target: T2, BD-BP (full-length B…US fused to pGBKT7) (Arabidopsis thaliana) (UniProt P46639); experiment: two-hybrid; Matchmaker Gold system, pGBKT7 and pGADT7 constructs co-transformed into yeast strain Gold Y2H; growth on QDO (SD/-Leu/-Trp/-His/-Ade) with X-a-Gal
T2 sequence: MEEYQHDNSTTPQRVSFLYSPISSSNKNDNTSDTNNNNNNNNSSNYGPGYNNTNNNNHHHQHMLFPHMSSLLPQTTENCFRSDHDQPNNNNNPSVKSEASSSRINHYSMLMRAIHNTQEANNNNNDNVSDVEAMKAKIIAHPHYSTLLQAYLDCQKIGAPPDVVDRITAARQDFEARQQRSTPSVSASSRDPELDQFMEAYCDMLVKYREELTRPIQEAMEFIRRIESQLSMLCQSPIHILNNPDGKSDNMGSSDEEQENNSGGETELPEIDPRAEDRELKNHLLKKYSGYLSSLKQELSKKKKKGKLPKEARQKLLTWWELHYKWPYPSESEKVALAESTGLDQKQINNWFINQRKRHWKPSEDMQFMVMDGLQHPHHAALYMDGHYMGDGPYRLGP

[3] = target: T3, BP MEINOX domain (amino acids 130-240), yeast two-hybrid deletion construct (Arabidopsis thaliana) (UniProt P46639); experiment: as above
T3 sequence: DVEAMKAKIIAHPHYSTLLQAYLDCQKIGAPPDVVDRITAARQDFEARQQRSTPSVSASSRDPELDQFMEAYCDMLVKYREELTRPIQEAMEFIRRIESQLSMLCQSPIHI

[4] = target: T4, His-BP recombinant protein (Arabidopsis thaliana) (UniProt P46639); experiment: native gel or EMSA; purified BP-His and BRM (689-952aa)-GST pre-incubated, then with biotin-labelled KNAT2 or KNAT6 DNA probes, 4°C; 5% polyacrylamide gel, 0.5x TBE; slower shifted bands; both purified
T4 sequence: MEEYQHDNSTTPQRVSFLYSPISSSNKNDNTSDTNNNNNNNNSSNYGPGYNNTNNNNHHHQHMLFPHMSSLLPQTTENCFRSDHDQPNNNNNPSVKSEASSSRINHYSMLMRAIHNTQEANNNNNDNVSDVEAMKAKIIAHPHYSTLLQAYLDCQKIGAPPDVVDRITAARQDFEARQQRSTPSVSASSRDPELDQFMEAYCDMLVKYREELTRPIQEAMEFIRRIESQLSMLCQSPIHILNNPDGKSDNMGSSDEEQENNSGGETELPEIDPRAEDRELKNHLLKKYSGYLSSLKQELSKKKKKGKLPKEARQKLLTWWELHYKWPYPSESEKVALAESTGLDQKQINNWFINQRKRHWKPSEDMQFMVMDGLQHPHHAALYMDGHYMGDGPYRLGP

[5] = target: T4, His-BP recombinant protein (Arabidopsis thaliana); experiment: pull-down; His-BP bound to His resin in phosphate buffer (10 mM Na2HPO4, 10 mM NaH2PO4, 500 mM NaCl, 10 mM imidazole), 4°C; BRM (689-952aa)-GST or GST added for 2 h; western blot with an anti-His antibody; both purified
[6] = target: T5, BP-GFP (full length BP fused with a GFP tag) (Arabidopsis thaliana) (UniProt P46639); experiment: co-IP; BP-GFP and BRM-Δ-FLAG co-expressed in N. benthamiana leaves; extract (50 mM Tris-HCl pH 7.4, 150 mM NaCl, 2 mM MgCl2, 1 mM DTT, 20% glycerol, 1% NP-40) on GFP-Trap A beads, 4°C, 4 h; blot with anti-Flag
T5 sequence: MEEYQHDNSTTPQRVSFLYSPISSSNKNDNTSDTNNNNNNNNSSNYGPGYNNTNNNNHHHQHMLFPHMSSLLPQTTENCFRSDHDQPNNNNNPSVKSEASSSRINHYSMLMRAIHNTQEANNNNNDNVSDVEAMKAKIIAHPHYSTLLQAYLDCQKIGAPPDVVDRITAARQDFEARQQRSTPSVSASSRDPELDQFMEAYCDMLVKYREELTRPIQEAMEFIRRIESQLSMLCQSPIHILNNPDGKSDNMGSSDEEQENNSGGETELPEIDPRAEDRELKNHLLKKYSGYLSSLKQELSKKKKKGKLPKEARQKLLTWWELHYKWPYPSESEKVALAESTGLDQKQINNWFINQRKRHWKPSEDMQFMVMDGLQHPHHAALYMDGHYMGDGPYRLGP

Molecule: AD-BRM (full-length BRAHMA fused to pGAKT7) (from UniProt Q6EVK6 1-2193)
binding [2]: binds | binding [3]: binds

B2: BRM (689-952aa)-GST (domain or fragment, UniProt Q6EVK6 689-952)
chain: ICEEGAEFLSKKRTDSLKKINGLLAKNLERKRIRPDLVLRLQIEEKKLRLSDLQSRVREEVDRQQQEIMSMPDRPYRKFVRLCERQRLEMNRQVLANQKAVREKQLKTIFQWRKKLLEAHWAIRDARTARNRGVAKYHEKMLREFSKRKDDGRNKRMEALKNNDVERYREMLLEQQTNMPGDAAERYAVLSSFLTQTEDYLHKLGGKITATKNQQEVEEAANAAAVAARLQGLSEEEVRAAATCAREEVVIRNRFTEMNAPKEN
binding [4]: binds | binding [5]: binds

The remaining lines, values ahead:

binding [1]: binds
Molecule: BRM full length fused to a YFP fragment (BiFC) (from UniProt Q6EVK6 1-2193)

binding [2]: binds
B1: BRM DII domain (amino acids 689-952), yeast two-hybrid deletion construct (domain or fragment, UniProt Q6EVK6 689-952)
chain: ICEEGAEFLSKKRTDSLKKINGLLAKNLERKRIRPDLVLRLQIEEKKLRLSDLQSRVREEVDRQQQEIMSMPDRPYRKFVRLCERQRLEMNRQVLANQKAVREKQLKTIFQWRKKLLEAHWAIRDARTARNRGVAKYHEKMLREFSKRKDDGRNKRMEALKNNDVERYREMLLEQQTNMPGDAAERYAVLSSFLTQTEDYLHKLGGKITATKNQQEVEEAANAAAVAARLQGLSEEEVRAAATCAREEVVIRNRFTEMNAPKEN

binding [6]: binds
B3: BRM-Δ-FLAG (DII domain, amino acids 689-952, of BRM fused with three FLAG tags) (domain or fragment, UniProt Q6EVK6 689-952)
chain: ICEEGAEFLSKKRTDSLKKINGLLAKNLERKRIRPDLVLRLQIEEKKLRLSDLQSRVREEVDRQQQEIMSMPDRPYRKFVRLCERQRLEMNRQVLANQKAVREKQLKTIFQWRKKLLEAHWAIRDARTARNRGVAKYHEKMLREFSKRKDDGRNKRMEALKNNDVERYREMLLEQQTNMPGDAAERYAVLSSFLTQTEDYLHKLGGKITATKNQQEVEEAANAAAVAARLQGLSEEEVRAAATCAREEVVIRNRFTEMNAPKEN
